Consider two molecules from publication PMC11894074.

Amino acid sequences for entries named in this document (tags omitted). Residues count along the entry.
UniProt P35869, residues 11-848: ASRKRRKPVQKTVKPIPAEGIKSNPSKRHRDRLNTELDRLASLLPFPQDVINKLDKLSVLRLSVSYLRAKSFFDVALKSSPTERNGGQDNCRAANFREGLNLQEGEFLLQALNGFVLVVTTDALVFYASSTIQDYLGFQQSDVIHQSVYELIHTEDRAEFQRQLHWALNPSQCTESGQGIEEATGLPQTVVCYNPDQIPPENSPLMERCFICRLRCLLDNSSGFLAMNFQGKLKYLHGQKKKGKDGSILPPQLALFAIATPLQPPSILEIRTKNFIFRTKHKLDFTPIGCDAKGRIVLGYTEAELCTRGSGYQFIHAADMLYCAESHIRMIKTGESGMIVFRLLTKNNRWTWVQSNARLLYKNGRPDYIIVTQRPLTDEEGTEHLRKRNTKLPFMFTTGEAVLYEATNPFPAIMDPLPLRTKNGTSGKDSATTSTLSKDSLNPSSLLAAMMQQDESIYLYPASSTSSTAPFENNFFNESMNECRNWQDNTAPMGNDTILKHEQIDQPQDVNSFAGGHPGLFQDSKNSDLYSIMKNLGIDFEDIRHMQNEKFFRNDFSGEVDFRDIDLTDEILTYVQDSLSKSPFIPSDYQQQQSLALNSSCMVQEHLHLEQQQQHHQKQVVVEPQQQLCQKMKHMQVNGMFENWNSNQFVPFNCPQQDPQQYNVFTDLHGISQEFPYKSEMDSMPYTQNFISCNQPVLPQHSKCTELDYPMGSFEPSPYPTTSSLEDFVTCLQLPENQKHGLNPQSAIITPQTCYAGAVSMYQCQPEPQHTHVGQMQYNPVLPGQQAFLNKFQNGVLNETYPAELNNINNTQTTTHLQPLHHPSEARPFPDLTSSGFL

Read-outs that look alike come from different tables or passages of the source. Results are given in words; binding and its absence hold for the method and conditions named. Binding seen in cells or lysates may run through a third protein. A yes stands for co-enrichment or nearness to the bait. Other partners may have been found.

For test [1], the target named is T1, aldo-keto reductase family 1 member C1 (AKR1C1) (human (endogenous in QBC939)) (UniProt Q04828).
T1 sequence: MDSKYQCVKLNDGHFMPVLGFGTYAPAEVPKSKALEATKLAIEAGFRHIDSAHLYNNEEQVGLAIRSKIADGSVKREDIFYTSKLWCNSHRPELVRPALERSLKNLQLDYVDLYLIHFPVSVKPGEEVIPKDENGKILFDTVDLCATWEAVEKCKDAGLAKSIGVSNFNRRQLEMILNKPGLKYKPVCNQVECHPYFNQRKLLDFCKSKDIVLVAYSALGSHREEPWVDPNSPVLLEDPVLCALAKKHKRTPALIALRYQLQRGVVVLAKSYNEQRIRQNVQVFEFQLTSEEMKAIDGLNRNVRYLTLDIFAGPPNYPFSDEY
Kind of test: affinity purification with mass spectrometry; Co-IP of AKR1C1 followed by LC-MS/MS to identify potential binding proteins; cells and antibody not stated.

The target of test [2] is T1, aldo-keto reductase family 1 member C1 (AKR1C1) (human (endogenous in QBC939)). The test is described as above. The source holds these as a separate data set.

Turning to “aryl-hydrocarbon receptor (AHR) (from UniProt P35869 11-848)”, the binding entry in test [1] is listed as “binds”.

B1: cytochrome P450 1B1 (CYP1B1) (enzyme, UniProt Q16678 1-543)
chain: MGTSLSPNDPWPLNPLSIQQTTLLLLLSVLATVHVGQRLLRQRRRQLRSAPPGPFAWPLIGNAAAVGQAAHLSFARLARRYGDVFQIRLGSCPIVVLNGERAIHQALVQQGSAFADRPAFASFRVVSGGRSMAFGHYSEHWKVQRRAAHSMMRNFFTRQPRSRQVLEGHVLSEARELVALLVRGSADGAFLDPRPLTVVAVANVMSAVCFGCRYSHDDPEFRELLSHNEEFGRTVGAGSLVDVMPWLQYFPNPVRTVFREFEQLNRNFSNFILDKFLRHCESLRPGAAPRDMMDAFILSAEKKAAGDSHGGGARLDLENVPATITDIFGASQDTLSTALQWLLLLFTRYPDVQTRVQAELDQVVGRDRLPCMGDQPNLPYVLAFLYEAMRFSSFVPVTIPHATTANTSVLGYHIPKDTVVFVNQWSVNHDPLKWPNPENFDPARFLDKDGLINKDLTSRVMIFSVGKRRCIGEELSKMQLFLFISILAHQCDFRANPNEPAKMNFSYGLTIKPKSFKVNVTLRESMELLDSAVQNLQAKETCQ
Consider B1, for which, in test [2], the binding result was “binds”.
